Results: paper doi:10.1101/2025.10.15.682441
No constants are given. Whether binding was seen depends on the method and setting. In cells and extracts the contact can be indirect. A yes stands for co-enrichment or nearness to the bait. Other partners may have been found.

Protein sequences, listed by entry. Tags and fused reporters are not part of them. Lines headed by an entry give the natural chain unless they say otherwise; changes in a name come on top.
UniProt Q9UHD9, whole entry: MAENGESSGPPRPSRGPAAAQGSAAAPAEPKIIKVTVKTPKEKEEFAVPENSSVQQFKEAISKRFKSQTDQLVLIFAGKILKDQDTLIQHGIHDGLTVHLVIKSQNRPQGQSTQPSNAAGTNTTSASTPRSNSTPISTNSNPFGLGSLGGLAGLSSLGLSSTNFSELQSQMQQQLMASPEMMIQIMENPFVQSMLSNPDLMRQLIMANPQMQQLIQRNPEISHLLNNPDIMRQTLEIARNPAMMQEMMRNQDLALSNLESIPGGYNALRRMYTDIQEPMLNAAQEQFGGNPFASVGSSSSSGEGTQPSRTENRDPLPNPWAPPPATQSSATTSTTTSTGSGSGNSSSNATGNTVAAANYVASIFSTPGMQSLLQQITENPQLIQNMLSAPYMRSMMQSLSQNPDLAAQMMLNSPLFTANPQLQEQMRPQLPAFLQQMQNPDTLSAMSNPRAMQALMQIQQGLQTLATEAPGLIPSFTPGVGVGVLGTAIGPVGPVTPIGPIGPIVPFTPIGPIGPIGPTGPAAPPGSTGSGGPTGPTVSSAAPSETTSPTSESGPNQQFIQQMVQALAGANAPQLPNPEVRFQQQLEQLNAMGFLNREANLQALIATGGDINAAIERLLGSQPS

Target: Ubiquilin-2, wild type (UBQLN2^WT) (human (endogenous in iPSCs and iMNs)) (UniProt Q9UHD9)
Assay: affinity purification with mass spectrometry

Substance | binding
VKORC1 (from UniProt Q9BQB6 1-163) | binds
VKORC1L1 (from UniProt Q8N0U8 1-176) | binds
